Results are given in words; binding and its absence hold for the method and conditions named. Some entries that bind do so weakly or less than the wild type.
Target: cTnI quality control product recombinant protein (human) (UniProt P19429)
Experiment: sandwich ELISA (Table 2)

B1: Mutation 1 (antibody, V domains shown)
VH: EVQLQQSGPELVKPGASVKMSCKASGYTFTLYVVHWVKQKPGQGLEWIGYIQPYLDGTKYNEKFKGKATLTVDKSSSTAFMELSSLTSEDSAVYYCARSGYGGYGLAWLAYWGQGTLVTVSA
VL: QAVVIQESALTTSPGETVTLTCRSSTGAATTSQYANWVQEKPDHLFTGLIGGSNNRAPGVPARFSGSLIGDKAALTITGAQTEDEAIYFCALVYSNHWVFGGGTKLTVLG
notes: CDR mutant of WT
  binding: binds

Reference: patent US20220033484A1 (FAPON BIOTECH, published 2022)
